# Results of single-concentration screens

The chains behind the UniProt entries cited, without tags or fusion partners. Residues count along the entry.
UniProt Q4DA54, 1-478: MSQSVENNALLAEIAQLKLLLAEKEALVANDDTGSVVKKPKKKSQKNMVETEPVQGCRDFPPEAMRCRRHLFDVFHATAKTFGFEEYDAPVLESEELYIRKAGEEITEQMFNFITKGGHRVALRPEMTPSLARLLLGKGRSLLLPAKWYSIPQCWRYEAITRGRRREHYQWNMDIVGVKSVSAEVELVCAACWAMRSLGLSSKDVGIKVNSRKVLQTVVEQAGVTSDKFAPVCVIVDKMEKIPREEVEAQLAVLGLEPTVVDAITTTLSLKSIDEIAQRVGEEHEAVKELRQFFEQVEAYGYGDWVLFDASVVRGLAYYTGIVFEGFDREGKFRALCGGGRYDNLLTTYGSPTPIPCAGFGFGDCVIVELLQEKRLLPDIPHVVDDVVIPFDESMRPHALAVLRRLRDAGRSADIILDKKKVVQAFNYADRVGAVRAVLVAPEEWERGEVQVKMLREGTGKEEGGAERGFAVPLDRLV

Measurements from “University of Dundee, Small-Polar-MMV Screening Library” (2021), ChEMBL document CHEMBL3988442.

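Histidine-tRNA ligase, Trypanosoma cruzi CL Brener (UniProt Q4DA54). Enzyme assay of histidyl-tRNA synthetase; the read-out is not stated. Compounds at 30 µM. Higher reads as stronger inhibition (inferred: compounds with an IC50 in retests scored well above the rest). Size under these conditions: about 69,000 compounds, about 31 of them at 50% or above in at least one test.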

Results are given as percent effect.
The record does not define 0% and 100%; most values in the screen are far below 50% and negative numbers occur (in some assays of this library far below -100).
This is an unselected part of the compounds tested.

structure	Percent Effect
Cc1ccsc1CNC(=O)c1ccc(N2CCOC2=O)cc1	-0.8403
O=C(Cc1ccccn1)N1CCCC(c2nccn2CC2CCC2)C1 (stereo not given)	7.317
COCc1nc2cc(NCc3nc(C)cs3)ccc2o1	13.79
CC(C)c1ocnc1C(=O)NC1(c2cccc(F)c2)CCOCC1	4.167
O=C1COC2(CCN(CC3CCC3)CC2)CN1c1cncnc1	-1.22
c1cc(CNCC2CNc3ccnn3C2)cc(N2CCCCC2)n1 (stereo not given)	9.398
CC(C)=CCN1C[C@H]2CC[C@@H]1CN(C(=O)CCc1n[nH]c(C)n1)C2	-4.831
Cc1c(C(=O)N[C@H]2CN(CCS(C)(=O)=O)C[C@@H]2C2CC2)cnn1C	-2.976
CN(C)C(=O)[C@@H]1C[C@@H]2CCN(Cc3nccs3)C[C@@H]2O1	6.077
CC(C)c1nc2c(n1C)CCN(CCCOc1ccc(C#N)cc1)C2	8.069
CC(C)(C)c1ncc(CNCC2CCCn3ccnc32)s1 (stereo not given)	3.911
Cc1cc(C)c2[nH]c(=O)c(CN3CCCC(O)(CO)C3)cc2c1 (stereo not given)	4.046
CCN(C)S(=O)(=O)N1CCCC(c2cccc(C(=O)O)c2)C1 (stereo not given)	0
CCCc1cc(=O)[nH]c(-n2nc(-c3cccs3)cc2N)n1	6.878
Cn1ccc2cc(C(=O)N3CC[C@@]4(O)CCCC[C@H]4C3)ccc21	-0.5848
CC(NC(=O)NCCCc1n[nH]c(N)c1C#N)c1ccccc1F (stereo not given)	4
CCC(CNC(=O)NCc1cc[nH]n1)N1CCCC1 (stereo not given)	0
NCC1CCCCN1Cc1cc(O)c2cccc(F)c2n1 (stereo not given)	12.94
CC(C)(C)C(=O)N1CCN(Cn2nccc2-c2cccnc2)CC1	5.882
c1csc(CNCC2COCc3c(-c4ccoc4)nnn3C2)n1 (stereo not given)	6.186
Cc1cc(CN(C)C(=O)NC2CCN(c3ncccn3)CC2)no1	9.467
Cc1n[nH]c(C)c1Sc1ccccc1NC(=O)N1CCOCC(O)C1 (stereo not given)	3.704
Cc1noc(C)c1CN1CCO[C@H]2CN(C(=O)N3CCCC3)C[C@H]21	5.6
COc1cc(NC(=O)c2cc(Cl)ccc2F)c(C(=O)N(C)C)cc1OC	8.333
CCc1ccc(NC(=O)C(C)N2CCN(Cc3ncc[nH]3)CC2)cc1 (stereo not given)	7.212
COCc1cccc(NC(C)C(=O)N(C)Cc2ccccc2)c1 (stereo not given)	-4.237
Cn1cc(C(=O)NC2CCN(C(=O)NCCSC(F)(F)F)CC2)cn1	-0.3759
Cc1nnc(Nc2cccc(C3CCCN(Cc4ncc[nH]4)C3)n2)s1 (stereo not given)	3.042
Cc1noc(C)c1-c1n[nH]c2c1CN(S(=O)(=O)c1cccnc1)CC2	4.762
Cn1c(-c2ccccc2Cl)nc2cc(C(=O)NCCOCCO)cnc21	-4.651
Cc1nc(CN2CCO[C@H]3[C@@H](OCc4ccccn4)CC[C@@H]32)cs1	6.011
NC(=O)c1csc(N2CCN(C3CCc4ccccc4C3)CC2)n1 (stereo not given)	3.077
O=C(NCc1ccco1)c1[nH]nc2c1CS(=O)(=O)CC2	5.263
O=C(NCC1CC1)Nc1cnc2ccc(F)cc2c1O	9.574
Cc1cc(C)n(-c2cncc(N3CCC(C(=O)N(C)C)CC3)n2)n1	5.172
CCN(CC)C(=O)Cn1cc(-c2nc(-c3ccccc3C)no2)nn1	0.4292
CC(=O)NCc1ccc(C(=O)NC2CCc3nc(C)cn3C2)o1 (stereo not given)	0
CC(=O)NCC(=O)NC1CCc2c(ccc(=O)n2CC2CC2)C1 (stereo not given)	6.952
Cc1ccc(CN(C)C(=O)CN2CCCC2Cn2cncn2)cc1 (stereo not given)	5.357
CCOC(=O)CCn1cnc2onc(-c3ccc(OC)cc3)c2c1=O	-12.2
COc1ccc(CNC(=O)NC(C)Cn2cccn2)cc1O (stereo not given)	-3.396
COc1cccc(CN2CCCCCC2c2cccc(F)c2)c1O (stereo not given)	6.931
CC1CCN(C(=O)[C@@H]2C[C@@H]3CCN(Cc4nccs4)C[C@H]3O2)CC1	7.407
CC(Cc1ccco1)NC(=O)C1=NN(c2ccccc2)C(=O)CC1 (stereo not given)	-4.615
O=C(O)C(c1ccc2c(c1)OCCO2)N1CCC(N2CCSCC2)CC1 (stereo not given)	11.11
CCN1CCN(C(C)CNC(=O)Nc2nnc(C)s2)CC1 (stereo not given)	11.67
CCn1ncc2c1CCCC2NCc1ccc(C)s1 (stereo not given)	0.8403
Cc1noc([C@@H]2C[C@H]3CN(Cc4ccc5c(c4)OCO5)C[C@H]3O2)n1	9.278
c1cncc(CN2CCC3(CC2)CC(c2cccnc2)CO3)c1 (stereo not given)	3.738
CC(Oc1cc(Cl)cc(Cl)c1)C(=O)NCCC(=O)N(C)C (stereo not given)	6.931
COCCn1cnnc1Cn1ccnc1-c1ccccc1C	8.293
CCC1=NN2C(=N)/C(=C/c3cccc(Cl)c3)C(=O)N=C2S1	10.05
CN(CC(=O)NC(C)(C)C)Cc1cccc2c1OCCO2	2.381
CNc1cc(C)nc(N2Cc3cnn(Cc4ccc(F)cc4)c3C2)n1	4.469
Cc1ccc(OCC(=O)NC2CC2)nc1	2.041
NCCn1cc(C(=O)NCc2ccccc2-n2cccn2)nn1	-4.04
Cn1cc(C2NC3(CCCC3)C(=O)N2CC2CC2)c(=O)n(C)c1=O (stereo not given)	-3.333
Cc1ccc2cnn(CCC(=O)Nc3nc(C)c(C)s3)c2c1	6.087
CSc1ccccc1C(C(=O)O)N(C)CC1CCOCC1 (stereo not given)	7.2
CS(=O)(=O)N1C[C@H]2C[C@H](C(=O)N3CCOCC3)[C@@H](C1)O2	4.854
CCC(NC(=O)c1cccc2cc[nH]c12)C(=O)N1CCOCC1 (stereo not given)	3.922
Cc1occc1C(=O)N1CC[C@H]2C[C@@H](c3nnc(C4CC4)o3)O[C@@H]2C1	3.175
O=S(=O)(c1cccs1)N1CC[C@H]2[C@H]1CCN2c1ncccn1	0.9709
Cc1nn(C)c(N2CCOCC2)c1CNC1COc2ccccc2C1 (stereo not given)	4
NCc1cn(-c2ccccc2C(=O)NCc2cccc(Cl)c2)cn1	4.301
NC(=O)c1ccc(OCC(=O)NC2CCc3c(F)cccc32)cc1 (stereo not given)	9.211
COCCNC(=O)NCCc1ccn(-c2ccccc2)n1	0.3759
CCOc1ncccc1NC(=O)NC1CCCN(c2ncccn2)C1 (stereo not given)	5.703
COc1ccc(Br)cc1CN(C)C(C)c1nc(C)no1 (stereo not given)	4.819
CCc1nc(CN2CCCC(NCc3cnc(C)s3)C2)no1 (stereo not given)	4.094
CN1CCN(C(=O)NCCc2ccc(F)cc2)[C@H]2CS(=O)(=O)C[C@H]21	8.427
OC1CCN(Cc2ccc(CNc3ncc(Cl)cc3F)cc2)CC1	8.374
COc1ccc(Br)cc1SCCCS(C)(=O)=O	6.061
Cc1ccc(N2CCOC(C)(C(=O)N(C)C)C2)nn1 (stereo not given)	4.135
COCCOc1ccc(C(=O)N[C@@H]2CNCCC[C@H]2O)cc1	1.98
CCn1cc(-c2cc(-c3cc(CN(C)C)cs3)nc(N)c2C#N)c(C)n1	0.8772
Cc1ocnc1C(=O)N1CCC2(CC1)c1nc[nH]c1CCN2CC(C)C	14.94
Cc1cc(C)n(-c2ccc(C(=O)NCC(c3cccs3)N(C)C)cc2)n1 (stereo not given)	3.879
Cc1cc(C(=O)NS(C)(=O)=O)c(C)n1-c1ccccc1	4.571
CCN(CCO)C[C@@H]1CN(c2cccc(C(F)(F)F)n2)C[C@@H]1CO	3.659
CC(=O)Nc1ncc(S(=O)(=O)Nc2ccccc2F)s1	1.739
COc1ccnc(N2CCN(CC(O)CN3CCOCC3)CC2)n1 (stereo not given)	4.046